{
  "source": "patent US11879021B2",
  "about": "(UNIVERSITÉ DE MONTRÉAL, priority 2016, dated 2024)",
  "assay": "general procedure: Fmoc solid-phase peptide synthesis; polystyrene Rink amide resin (0.50 mmol/g); CEM SpheriTide resin (0.85 mmol/g) for 26, 27 and 34; DIC/HOBt",
  "conditions": "whole synthesis",
  "data": [
    {"substance": "Boc-Val-Aza-Pra-D-Trp(Boc)-Ala-Trp(Boc)-D-Phe-Lys(o-NBS, Allyl)-Rink Amide Resin 22c", "values": [
      {"measurement": "difficulty met", "result": "showed incomplete coupling despite repetition"}
    ]}
  ]
}
